# PubChem BioAssay AID1259308 | NCATS | 2017
# Purpose: 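Candidate targets for better recombinant protein yield in mammalian cells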 (primary screen)
# Cells: human HEK293 embryonic kidney cells stably expressing firefly luciferase (HEK-CMV-Luc2-Hygro)
# Reagent: single siRNA against human genes, 0.8 pmol siRNA per well
# Time to read-out: 72 h
# Measurement: 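Luciferase light (ONE-Glo) measured on one replicate plate set and viability (CellTiter-Glo) on the other, scaled to a negative control siRNA, with robust z-scores and luciferase per cell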
# Scale: total luciferase, z-score and total luciferase, % of control: higher = more reporter protein produced
# Call rule: 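Active when the median/MAD z-score for overall luciferase is greater than 3; a gene was taken forward for validation with new siRNAs if at least two of its three siRNAs passed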
# Calls: active = raised luciferase; inactive = no rise
# This is one part, drawn at random, of about 59,000 reagents. About 1,510 of them (2.6%) count as active. 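Calls use total luciferase alone and ignore viability, so some active siRNAs may act by altering cell number.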 A number with no mark means an inactive call. The numbers tell different reagents against one gene apart. Further read-outs or replicates are left out here. No sequences are given here.
gene,siRNA no.,"total luciferase, z-score","total luciferase, % of control"
SPIRE2,1,-0.845,65.1
SPIRE2,2,1.87,119
SPIRE2,3,-2.01,42
LYPLAL1-DT,1,0.0901,83.7
LYPLAL1-DT,2,-0.832,65.3
LYPLAL1-DT,3,-0.394,74.1
SEC24A,1,1.48,111
SEC24A,2,-0.724,67.5
SEC24A,3,-1.21,57.8
SAP30L,1,-0.559,70.8
SAP30L,2,0.00214,81.9
SAP30L,3,0.69,95.6
LINC03040,1,-1.7,48.1
LINC03040,2,0.403,89.9
LINC03040,3,-1.33,55.5
UBE2M,1,-0.141,79.1
UBE2M,2,0.0829,83.5
UBE2M,3,-0.474,72.5
HEXIM2,1,0.198,85.8
HEXIM2,2,1,102
HEXIM2,3,-0.358,74.8
SH2D3A,1,0.28,87.5
SH2D3A,2,1.23,106
SH2D3A,3,0.26,87.1
SPOPLP2,1,-1.64,49.2
SPOPLP2,2,-1.73,47.5
SPOPLP2,3,-0.821,65.6
HERC5,1,-0.781,66.4
HERC5,2,0.206,86
HERC5,3,-0.516,71.6
KCNC3,1,1.11,104
KCNC3,2,0.0517,82.9
KCNC3,3,0.254,86.9
BNC1,1,-1.97,42.6
BNC1,2,-1.83,45.4
BNC1,3,0.14,84.7
CILK1,1,0.893,99.6
CILK1,2,1.12,104
CILK1,3,-1.78,46.6
DUSP16,1,0.34,88.6
DUSP16,2,0.521,92.2
DUSP16,3,-1.3,56.1
CNBP,1,0.14,84.7
CNBP,2,-0.753,66.9
CNBP,3,-0.417,73.6
PARD6A,1,0.108,84
PARD6A,2,0.0379,82.6
PARD6A,3,2.13,124
GSC2,1,0.352,88.9
GSC2,2,0.422,90.3
GSC2,3,0.638,94.6
ACKR3,1,-0.351,74.9
ACKR3,2,-0.215,77.6
ACKR3,3,-0.97,62.6
LYRM9,1,0.898,99.8
LYRM9,2,-0.116,79.6
LYRM9,3,2,122

Entries above whose target name begins with K or k (3):
gene,siRNA no.,"total luciferase, z-score","total luciferase, % of control"
KCNC3,1,1.11,104
KCNC3,2,0.0517,82.9
KCNC3,3,0.254,86.9
